Patent WO2011095604A1 (dated 2011)
These are yes or no findings as the source states them, for the method shown. Some binding calls cover weakened binding; strength is not graded here.

The chains behind the UniProt entries cited, without tags or fusion partners. Where a name states a change or a piece, a line headed by the entry shows the natural chain unless it says otherwise.
UniProt P00451: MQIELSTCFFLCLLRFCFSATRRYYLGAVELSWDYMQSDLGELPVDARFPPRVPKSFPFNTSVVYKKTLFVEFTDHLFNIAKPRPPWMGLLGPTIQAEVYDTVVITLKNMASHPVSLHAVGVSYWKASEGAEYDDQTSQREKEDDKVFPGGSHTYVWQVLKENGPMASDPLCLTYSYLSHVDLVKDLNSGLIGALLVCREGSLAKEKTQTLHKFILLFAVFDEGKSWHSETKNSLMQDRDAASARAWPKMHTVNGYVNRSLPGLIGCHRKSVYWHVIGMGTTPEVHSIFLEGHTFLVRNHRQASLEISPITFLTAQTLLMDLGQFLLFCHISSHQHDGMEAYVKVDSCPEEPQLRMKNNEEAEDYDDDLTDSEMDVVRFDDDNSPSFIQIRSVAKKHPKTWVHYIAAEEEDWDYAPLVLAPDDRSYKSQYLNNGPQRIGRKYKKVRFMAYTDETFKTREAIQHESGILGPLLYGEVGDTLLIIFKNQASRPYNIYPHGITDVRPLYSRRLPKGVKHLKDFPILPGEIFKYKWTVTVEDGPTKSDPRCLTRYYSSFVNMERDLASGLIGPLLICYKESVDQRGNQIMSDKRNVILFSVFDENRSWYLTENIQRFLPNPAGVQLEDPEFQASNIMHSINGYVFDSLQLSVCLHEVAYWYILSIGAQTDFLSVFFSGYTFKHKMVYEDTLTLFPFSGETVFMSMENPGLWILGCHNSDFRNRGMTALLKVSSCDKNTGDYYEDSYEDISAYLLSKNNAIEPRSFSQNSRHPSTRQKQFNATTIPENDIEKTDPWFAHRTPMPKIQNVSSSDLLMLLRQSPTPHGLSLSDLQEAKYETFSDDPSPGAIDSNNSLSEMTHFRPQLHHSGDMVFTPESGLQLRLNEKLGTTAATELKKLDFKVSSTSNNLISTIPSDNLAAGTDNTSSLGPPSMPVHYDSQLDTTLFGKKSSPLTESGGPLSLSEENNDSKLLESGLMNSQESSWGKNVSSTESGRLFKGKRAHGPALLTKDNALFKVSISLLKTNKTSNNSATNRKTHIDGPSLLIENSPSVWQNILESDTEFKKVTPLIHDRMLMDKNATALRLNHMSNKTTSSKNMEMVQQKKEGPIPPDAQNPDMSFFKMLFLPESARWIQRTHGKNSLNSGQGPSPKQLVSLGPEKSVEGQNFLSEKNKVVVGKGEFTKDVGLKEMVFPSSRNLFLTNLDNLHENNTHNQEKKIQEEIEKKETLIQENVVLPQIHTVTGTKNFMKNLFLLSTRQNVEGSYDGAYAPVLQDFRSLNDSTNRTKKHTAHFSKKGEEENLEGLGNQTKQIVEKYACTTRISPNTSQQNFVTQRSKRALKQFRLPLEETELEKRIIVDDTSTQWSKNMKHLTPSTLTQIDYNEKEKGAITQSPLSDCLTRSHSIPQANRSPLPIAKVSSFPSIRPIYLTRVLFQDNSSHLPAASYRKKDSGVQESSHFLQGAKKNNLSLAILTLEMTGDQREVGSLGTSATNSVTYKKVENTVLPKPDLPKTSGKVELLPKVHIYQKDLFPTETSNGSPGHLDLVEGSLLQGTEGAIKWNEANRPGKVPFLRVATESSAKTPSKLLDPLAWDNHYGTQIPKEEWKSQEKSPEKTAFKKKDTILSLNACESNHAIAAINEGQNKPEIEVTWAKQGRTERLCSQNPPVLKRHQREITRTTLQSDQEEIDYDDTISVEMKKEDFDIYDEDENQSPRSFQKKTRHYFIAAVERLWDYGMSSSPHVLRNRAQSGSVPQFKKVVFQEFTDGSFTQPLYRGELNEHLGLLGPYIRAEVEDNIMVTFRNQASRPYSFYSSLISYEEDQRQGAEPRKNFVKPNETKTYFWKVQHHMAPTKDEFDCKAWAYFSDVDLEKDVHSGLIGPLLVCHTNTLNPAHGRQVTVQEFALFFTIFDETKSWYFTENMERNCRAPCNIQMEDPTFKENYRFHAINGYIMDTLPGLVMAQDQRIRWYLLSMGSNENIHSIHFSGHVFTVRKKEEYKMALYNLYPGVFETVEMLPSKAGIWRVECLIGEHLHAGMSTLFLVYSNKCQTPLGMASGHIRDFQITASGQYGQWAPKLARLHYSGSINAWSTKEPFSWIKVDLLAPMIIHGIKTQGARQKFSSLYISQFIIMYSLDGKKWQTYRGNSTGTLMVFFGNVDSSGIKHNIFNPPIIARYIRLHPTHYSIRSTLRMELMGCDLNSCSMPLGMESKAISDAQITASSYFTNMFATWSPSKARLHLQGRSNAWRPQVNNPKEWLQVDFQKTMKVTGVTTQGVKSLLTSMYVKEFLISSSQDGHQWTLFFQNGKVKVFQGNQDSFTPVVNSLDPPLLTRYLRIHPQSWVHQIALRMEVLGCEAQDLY

B1: SEQ ID NO 25 (peptide)
peptide: QVQLLESGGGLVQPGGSLRLSCAASGFTVSPNMSWVRQAPGKGLEWVSISSITVPNGSTYYADSVKGRFTRDNSKNTLYLQMNSLRAEDTAVYYCAGYSPWYDNFRYWGQGTLVTVSS

Legend:
[1] = molecular target: recombinant FVIII (Homo sapiens (Human)) (UniProt P00451); experiment: phage display selection on recombinant FVIII or its domains, then ELISA
[2] = molecular target: recombinant FVIII domain A2 (Homo sapiens (Human)) (UniProt P00451); experiment: Intavis peptide array incubated with the A2 domain
[3] = molecular target: recombinant FVIII (Homo sapiens (Human)) (UniProt P00451); experiment: Intavis peptide array incubated with recombinant FVIII

| Binder | binding [1] | binding [2] | binding [3] |
| --- | --- | --- | --- |
| HHHHNRHQWLWTDTNVKVTS [SEQ ID NO 24] | binds | – | – |
| B1 | binds | – | – |
| IRIIPHH [Ligand 384-1] | – | binds | binds |
| TKVSRYV [Ligand 384-2] | – | binds | binds |
| TQFTCNNGRCI [Ligand 384-3] | – | binds | binds |
| TQFTCNNGRCININW [Ligand 384-4] | – | binds | binds |
| QCRLDGLCIPLRWRC [Ligand 384-5] | – | binds | binds |
| HTEQKRNVIRIIPHHNYNAAINK [Ligand 384-6] | – | binds | binds |
| MKGKYGIYTKVSRYVNWIKEKTK [Ligand 384-7] | – | binds | binds |
| ADKEYTNIFLKFGSGYVSGWGRVFHKGRSAL [Ligand 384-8] | – | binds | binds |
